In PubChem BioAssay AID1439 (NMMLSC, 2008):
Screen size: about 220,000 compounds; about 770 (0.35%) were called active. The shares of active, inactive and inconclusive entries below differ from those in the screen. Rule as the data show it: active = binding response below about 49% or above about 150%; inconclusive = no clear call, values can overlap the other calls; inactive = in between.

Amino acid sequences for entries named in this document (tags omitted).
UniProt P09471, whole entry, looked up: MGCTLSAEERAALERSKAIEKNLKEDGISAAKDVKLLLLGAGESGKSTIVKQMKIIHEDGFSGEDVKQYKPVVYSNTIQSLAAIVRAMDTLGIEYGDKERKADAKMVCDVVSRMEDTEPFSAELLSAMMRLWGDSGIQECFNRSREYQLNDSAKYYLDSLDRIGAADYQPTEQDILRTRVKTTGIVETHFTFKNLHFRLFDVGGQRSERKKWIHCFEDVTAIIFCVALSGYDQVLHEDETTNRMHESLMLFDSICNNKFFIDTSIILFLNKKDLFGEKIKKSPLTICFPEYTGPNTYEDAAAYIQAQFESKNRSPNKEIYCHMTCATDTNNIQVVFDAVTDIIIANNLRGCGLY

Molecular target: Guanine nucleotide-binding protein G(o) subunit alpha (Homo sapiens) (UniProt P09471)
Experiment: RGS7-Galphao binding modulators, primary screen, biochemical, multiplexed bead flow cytometry (AID 1439);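 also: fluorescent Galphao held in activated GDP-AlF4 state binding bead-coupled RGS7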
Details: at 10 µM, actives lie on both sides

Row | SMILES | binding response (% of control)
1 | Cc1nc(N(C)C)c2sc(=S)n(-c3ccccc3)c2n1 | inconclusive: 119%
2 | Cc1c(C(=O)NN)nc2ccccn12 | inactive: 96.8%
3 | CNC(=S)N1N=C(c2ccc(C)cc2)CC1c1cc(OC)ccc1OC (configuration not stated) | inconclusive: 103%
4 | O=C(Cc1n[nH]c(=O)c2ccccc12)OCC(=O)c1ccc2c(c1)OCCO2 | inactive: 105%
5 | CCC(=O)c1ccc(N2CCCCCC2)c(F)c1 | inactive: 101%
6 | O=C(N/N=C/c1sc(N2CCOCC2)nc1-c1ccccc1)c1ccc(O)cc1 | inconclusive: 75%
7 | COc1ccc(NC(=O)CC2C(=O)NCCN2C(=O)c2ccc(Cl)cc2)cc1 (configuration not stated) | inconclusive: 94%
8 | CCOC(=O)c1cc2c(nc1N)CCCC2 | inconclusive: 75.1%
9 | COc1ccc(CC2CCOC2=O)cc1 (configuration not stated) | inactive: 96.5%
10 | Cn1nc(-c2ccc(C(=O)Nc3ccc(F)cc3)cc2)c2ccccc2c1=O | inconclusive: 94.9%
11 | COc1cccc(C2c3[nH]c4ccccc4c3CCN2Cc2cccc(C)n2)c1 (configuration not stated) | inactive: 102%
12 | N=C(N)N1CCc2ccccc21 | inconclusive: 117%
13 | CCOC(=O)C(C)Oc1cccc2c(=O)n(CC(=O)NCc3ccc(F)cc3)ccc12 (configuration not stated) | inconclusive: 105%
14 | CC(Sc1cccc[n+]1[O-])C(=O)Nc1cccc([N+](=O)[O-])c1 (configuration not stated) | inconclusive: 95.2%
15 | O=C(O)C1CSC2(c3ccc(Br)cc3)CCC(=O)N12 (configuration not stated) | inactive: 96.7%
16 | O=C(c1cccc([N+](=O)[O-])c1)N1CCN(C/C=C/c2ccccc2)CC1 | inconclusive: 126%
17 | COc1ccc2c(CC(=O)OCC(=O)c3ccc(F)cc3)coc2c1 | active: 181% [activator]
18 | CNc1cc(N2CCN(S(=O)(=O)N(C)C)CC2)ccc1[N+](=O)[O-] | inconclusive: 92.2%
19 | COc1ccccc1NC(=O)c1csc2c1CCCC2 | inactive: 97.3%
20 | O=C(Nc1ccc(NC(=O)C2CCCCC2)nc1)c1cccs1 | inactive: 96.7%
21 | O=C(O)Cc1csc(NC(=O)c2ccco2)n1 | inactive: 103%
22 | CCn1c(CN2c3ccccc3Sc3ccccc32)n[nH]c1=S | inconclusive: 99.9%
23 | S=C(Nc1cccnc1)Nc1ccccc1Br | inconclusive: 115%

Row | SMILES | binding response (% of control)
24 | CCOc1cc(CO)cc(Br)c1OCC(N)=O | inconclusive: 89.5%
25 | Cc1c(C)c(C)c(CN2CCSCC2)c(C)c1C | inconclusive: 109%
26 | S=C(NCCc1ccccc1)N/N=C/c1ccc(Cl)cc1 | inconclusive: 92.5%
27 | Cc1ccc(C(=O)Cn2nnc(-c3ccccc3)n2)cc1 | inconclusive: 109%
28 | CC(=O)N[C@H]1[C@H](OCc2ccccc2F)O[C@H](COC(C)=O)[C@@H](OC(C)=O)[C@@H]1OC(C)=O | inconclusive: 96.8%
29 | Cn1c(SCC(=O)N2CCCc3ccccc32)nc2ccccc2c1=O | inactive: 96.4%
30 | Cc1ccc(OCC(=O)N2CCCC(CCC(=O)N(C)CCc3ccccn3)C2)cc1 (configuration not stated) | inactive: 99.7%
31 | N#Cc1c2n(c(=S)n(-c3ccccc3[N+](=O)[O-])c1=O)CCCCC2 | inconclusive: 92.3%
32 | COc1cc(C)c(C(=O)Oc2cc(C)c(C(=O)O)c(O)c2)c(O)c1 | inconclusive: 81.4%
33 | CCCn1ncc(CN2CCC(N3CCC(C(=O)N4CCOCC4)CC3)CC2)c1C | inconclusive: 94.1%
34 | N=c1c2c(ncn1Cc1ccco1)Oc1cc(O)ccc1C2c1ccccc1 (configuration not stated) | inconclusive: 118%
35 | C=CCN1C(=O)C(O)(CC(=O)c2ccco2)c2cc(Br)ccc21 (configuration not stated) | inconclusive: 125%
36 | COc1ccc(C(=O)O)cc1S(=O)(=O)N(C)CCc1ccccn1 | inconclusive: 66%
37 | CC/C(=N\NC(=O)COc1ccc(Br)cc1)c1ccc(OC)c(OC)c1 | inconclusive: 113%
38 | O=C1COc2ccc(C(=O)COC(=O)Cc3ccc(Cl)cc3)cc2N1 | inconclusive: 109%
39 | CC(C[N+](C)(C)C)OC(=O)C1(c2ccccc2)CCCC1 (configuration not stated) | inconclusive: 108%
40 | O=C(Nc1ccc([N+](=O)[O-])cc1)c1cc2ccccc2nc1Cl | inconclusive: 91.3%
41 | COc1ccc(CCn2c(NN=C3CCCC3)nc3c2c(=O)[nH]c(=O)n3C)cc1 | inconclusive: 92.7%
42 | O=C(Nc1cccc(Cl)c1)c1cc([N+](=O)[O-])ccc1N1CCN(CCO)CC1 | inconclusive: 106%
43 | CC(C(=O)NN)n1nnc(N2CCOCC2)n1 (configuration not stated) | inconclusive: 145%
44 | CCOC(=O)c1sc(NC(=O)Nc2ccc(F)cc2)nc1C | inactive: 91.4%
45 | CCc1ccccc1Nc1nc2ccccc2n1CC | inconclusive: 98.9%
46 | Nc1c(C(=O)c2cccs2)sc2nsc(SCCN3CCCCC3)c12 | inconclusive: 348%

Row | SMILES | binding response (% of control)
47 | O=C1CCN(c2ccc([N+](=O)[O-])cc2F)CC1 | inconclusive: 80.6%
48 | c1ccc(-c2nc(-c3ccncc3)n[nH]2)nc1 | inconclusive: 102%
49 | Cc1cc(Cl)ccc1NNC(=O)c1snnc1C | inconclusive: 81.7%
50 | CCN(CC)C(=S)SCC(=O)Nc1ncc2c(n1)CCCC2=O | inconclusive: 116%
51 | COc1cc(C(=S)N2CCN(c3ccccc3Cl)CC2)cc(O)c1O | inconclusive: 104%
52 | CCn1nc(C)c(/C=N/NC(=O)Cn2nnc(N)n2)c1C | inconclusive: 109%
53 | Cc1cc(C)cc(C(=O)Nc2ccc(NC(=O)Cc3ccccc3)cc2)c1 | inactive: 98.1%
54 | O=C(c1c[nH]c2ccc(S(=O)(=O)N3CCC4(CC3)OCCO4)cc2c1=O)N1CCOCC1 | inactive: 103%
55 | O=C(NC(=S)NN1CCCCC1c1cccnc1)c1ccc(Br)cc1 (configuration not stated) | inconclusive: -156%
56 | CCOCCn1c(SCC(=O)OCc2ccccc2)nc2c1c(=O)[nH]c(=O)n2C | inconclusive: 96.2%
57 | NC(=O)CSc1nnc(-c2cccc(S(=O)(=O)N3CCCCC3)c2)o1 | inconclusive: 381%
58 | O=C(N=c1ccn(-c2nc3ccccc3nc2NS(=O)(=O)c2ccc(Cl)cc2)cc1)c1cccs1 | inconclusive: 89.7%
59 | CC(C(=O)Nc1ccc(OCc2ccccc2)cc1)N1CCCC1 (configuration not stated) | inconclusive: 98%
60 | CCC1(C(=O)OC)NC(c2ccco2)C2C(=O)N(c3ccc(F)cc3)C(=O)C21 (configuration not stated) | inactive: 99%
61 | O=C(CCN1CCOCC1)NNC(=S)NC(=O)c1ccc(Br)cc1 | inactive: 96.2%
62 | CC(C)(C)C(=O)N(CCN(C(=O)C(C)(C)C)c1ccccc1)c1ccccc1 | inactive: 113%
63 | O=S(=O)(Nc1ccccc1N1CCCCC1)c1ccc(F)cc1 | inconclusive: 81.7%
64 | O=C1NC(CCc2ccccc2)C(=O)N1CCOc1ccccc1 (configuration not stated) | inconclusive: 95.6%
65 | O=C(/C=C/c1ccc(F)cc1)NCC1(c2ccccc2)CCOCC1 | inactive: 103%
66 | Cc1[nH]n(-c2ccccc2)c(=S)c1C=Nc1cccc([N+](=O)[O-])c1 | inactive: 107%
67 | O=C(Cn1nc(-c2cccc([N+](=O)[O-])c2)c2ccccc2c1=O)NCC1CCCO1 (configuration not stated) | inconclusive: 92.9%
68 | FC(F)(F)c1cccc(-c2nc(COc3ccc(Cl)cc3Cl)no2)c1 | inconclusive: 37.1%
69 | CS(=O)(=O)N1N=C(c2cccs2)CC1c1ccccc1 (configuration not stated) | inconclusive: 93.1%

Row | SMILES | binding response (% of control)
70 | Cc1c(C)n(CC(O)CNCCO)c2ccccc12 (configuration not stated) | inconclusive: 89.2%
71 | CC1(C)Cc2c(c(N3CCOCC3)nc3sc4c(NCCN5CCOCC5)nnnc4c23)CS1 | inconclusive: 243%
72 | Cc1cc(N2CCN(C)CC2)nc(-c2ccccc2O)n1 | inconclusive: 82.2%
73 | Cc1cc(C)nc(-n2nc(C)cc2NC(=O)c2ccc(F)cc2F)n1 | inconclusive: 87.8%
74 | Cc1ccc(S(=O)(=O)N2CCCCC2)cc1NC(=O)Cn1cnnn1 | inconclusive: 122%
75 | COc1cc2c3c(c1OC)C1(C=CC(=O)C=C1)CC3N(C(=O)CCC(=O)O)CC2 (configuration not stated) | inconclusive: 79.9%
76 | CN1CCc2nc3sc(C(=O)NCc4ccccc4)c(N)c3cc2C1 | inconclusive: 126%
77 | CCNc1nc(NC(C)C)nc(N(C)C#N)n1 | inconclusive: 90.3%
78 | CCc1cccc(NC(=O)C(NC(=O)C2CCCCC2)C(C)C)c1 (configuration not stated) | inactive: 97.2%
79 | CC(C)C(=O)NNC(=O)CC(=O)Nc1ccccc1C(=O)O | inconclusive: 105%
80 | COc1ccc(/C(N)=N/OC(=O)CCCN2C(=O)c3ccccc3C2=O)cc1OC | inactive: 109%
81 | O=C(COC(=O)c1ccccn1)Nc1nc(-c2cccc([N+](=O)[O-])c2)cs1 | inconclusive: 87.5%
82 | CCOC(=O)C/C(N)=N/NC(=O)c1ccc(Cl)cc1Cl | inactive: 99.7%
83 | NNC(=O)c1cc2cc(OC(F)(F)F)ccc2[nH]1 | inconclusive: 101%
84 | CCC(=O)OCC(=O)Nc1cc(S(=O)(=O)N(C)C)ccc1Cl | inconclusive: 89%
85 | CCCC(=O)Nc1ccc2oc(=O)ccc2c1 | inactive: 102%
86 | COc1ccc(S(=O)(=O)N(C)CC(=O)Nc2ccccc2C(F)(F)F)cc1OC | inactive: 87.8%
87 | O=C(CCCCCn1c(=S)[nH]c2ccc(N3CCOCC3)cc2c1=O)NCc1cccc(Cl)c1 | inactive: 99.4%
88 | NC(=O)CC(NC(=O)Cc1cccc2ccccc12)c1ccc(NC2CCCCCC2)c([N+](=O)[O-])c1 (configuration not stated) | inconclusive: 100%
89 | COc1ccc(C(=O)NC(NC(=O)c2ccc(OC)cc2)c2ccccc2F)cc1 | inactive: 105%
90 | COc1ccc(OC(=O)c2c(C)nn(-c3ccccc3)c2C)cc1 | inconclusive: 67%
91 | CCOC(=O)N1CCc2c(sc(NC(=O)CN3CCOCC3)c2C#N)C1 | inconclusive: -30.2%
92 | C[C@@H]1CC=C[C@H]2[C@H]1C(=O)N(Cc1ccccc1)[C@H]2c1ccc(Br)cc1F | inconclusive: 107%

Molecules above that have a CF3 group (three):
Row | SMILES | binding response (% of control)
68 | FC(F)(F)c1cccc(-c2nc(COc3ccc(Cl)cc3Cl)no2)c1 | inconclusive: 37.1%
83 | NNC(=O)c1cc2cc(OC(F)(F)F)ccc2[nH]1 | inconclusive: 101%
86 | COc1ccc(S(=O)(=O)N(C)CC(=O)Nc2ccccc2C(F)(F)F)cc1OC | inactive: 87.8%
